# Assay results published in the supplement of paper PMC8728848.
# Some of the results follow.
# Legend:
# Experiment in all cases: glycan array binding signal (z-score within array); higher = stronger binding
# Details in all cases: glycan notation: IUPAC condensed, linker removed
# Gal(b1-2)Gal = target: Gal(b1-2)Gal
# In short: (§1)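 Glycan array data were curated from 3228 arrays in the Consortium for Functional Glycomics database and kept only where the protein sequence was available. Glycan names were converted to IUPAC-condensed notation, and columns mapping to the same glycan were averaged. The binding signal is a within-array Z-score, averaged across arrays of the same protein sequence at different concentrations or buffers and across linkers. Negative Z-scores can be read as non-binding.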
# Gal(b1-3)Gal = target: Gal(b1-3)Gal
# In short: as §1
# Gal(b1-3)Gal(b1-4)GlcNAc = target: Gal(b1-3)Gal(b1-4)GlcNAc
# In short: as §1
# Gal(b1-3)GalNAc = target: Gal(b1-3)GalNAc
# In short: as §1
# [1] = target: Gal(b1-3)GalNAc(a1-3)[Fuc(a1-2)]Gal(b1-4)Glc
# In short: as §1
# [2] = target: Gal(b1-3)GalNAc(a1-3)[Fuc(a1-2)]Gal(b1-4)GlcNAc
# In short: as §1
# Gal(b1-3)GalNAc(b1-3)Gal = target: Gal(b1-3)GalNAc(b1-3)Gal
# In short: as §1
# [3] = target: Gal(b1-3)GalNAc(b1-3)Gal(a1-4)Gal(b1-4)Glc
# In short: as §1
# [4] = target: Gal(b1-3)GalNAc(b1-4)Gal(b1-4)Glc
# In short: as §1
# [5] = target: Gal(b1-3)GalNAc(b1-4)[Neu5Ac(a2-3)]Gal(b1-4)Glc
# In short: as §1
# Gal(b1-3)GlcNAc = target: Gal(b1-3)GlcNAc
# In short: as §1
# [6] = target: Gal(b1-3)GlcNAc(a1-3)Gal(b1-4)GlcNAc
# In short: as §1
# [7] = target: Gal(b1-3)GlcNAc(a1-6)Gal(b1-4)GlcNAc
# In short: as §1
# Gal(b1-3)GlcNAc(b1-2)Man = target: Gal(b1-3)GlcNAc(b1-2)Man
# In short: as §1
# [8] = target: Gal(b1-3)GlcNAc(b1-2)Man(a1-3)[Gal(b1-3)GlcNAc(b1-2)Man(a1-6)]Man(b1-4)GlcNAc(b1-4)GlcNAc
# In short: as §1
# [9] = target: Gal(b1-3)GlcNAc(b1-2)Man(a1-3)[Gal(b1-3)GlcNAc(b1-2)Man(a1-6)]Man(b1-4)GlcNAc(b1-4)[Fuc(a1-6)]GlcNAc
# In short: as §1
# [10] = target: Gal(b1-3)GlcNAc(b1-2)Man(a1-3)[GlcNAc(b1-4)][Gal(b1-3)GlcNAc(b1-2)Man(a1-6)]Man(b1-4)GlcNAc(b1-4)GlcNAc
# In short: as §1
# [11] = target: Gal(b1-3)GlcNAc(b1-2)[Gal(b1-3)GlcNAc(b1-6)]Man(a1-6)[Gal(b1-3)GlcNAc(b1-2)Man(a1-3)]Man(b1-4)GlcNAc(b1-4)GlcNAc
# In short: as §1
# [12] = target: Gal(b1-3)GlcNAc(b1-3)Gal(b1-3)GlcNAc
# In short: as §1
# [13] = target: Gal(b1-3)GlcNAc(b1-3)Gal(b1-4)Glc
# In short: as §1
# [14] = target: Gal(b1-3)GlcNAc(b1-3)Gal(b1-4)GlcNAc
# In short: as §1
# [15] = target: Gal(b1-3)GlcNAc(b1-3)Gal(b1-4)GlcNAc(b1-2)Man(a1-3)[Gal(b1-3)GlcNAc(b1-3)Gal(b1-4)GlcNAc(b1-2)Man(a1-6)]Man(b1-4)GlcNAc(b1-4)GlcNAc
# In short: as §1
# [16] = target: Gal(b1-3)GlcNAc(b1-3)Gal(b1-4)GlcNAc(b1-2)[Gal(b1-3)GlcNAc(b1-3)Gal(b1-4)GlcNAc(b1-6)]Man(a1-6)[Gal(b1-3)GlcNAc(b1-3)Gal(b1-4)GlcNAc(b1-2)Man(a1-3)]Man(b1-4)GlcNAc(b1-4)[Fuc(a1-6)]GlcNAc
# In short: as §1
# [17] = target: Gal(b1-3)GlcNAc(b1-3)Gal(b1-4)GlcNAc(b1-3)Gal(b1-4)GlcNAc(b1-2)[Gal(b1-3)GlcNAc(b1-3)Gal(b1-4)GlcNAc(b1-3)Gal(b1-4)GlcNAc(b1-6)]Man(a1-6)[Gal(b1-3)GlcNAc(b1-3)Gal(b1-4)GlcNAc(b1-3)Gal(b1-4)GlcNAc(b1-2)Man(a1-3)]Man(b1-4)GlcNAc(b1-4)[Fuc(a1-6)]GlcNAc
# In short: as §1
# [18] = target: Gal(b1-3)GlcNAc(b1-3)Gal(b1-4)GlcNAc(b1-6)[Gal(b1-3)GlcNAc(b1-3)]Gal(b1-4)Glc
# In short: as §1
# [19] = target: Gal(b1-3)GlcNAc(b1-3)Gal(b1-4)[Fuc(a1-3)]GlcNAc
# In short: as §1
# [20] = target: Gal(b1-3)GlcNAc(b1-3)Gal(b1-4)[Fuc(a1-3)]GlcNAc(b1-6)[Gal(b1-3)GlcNAc(b1-3)]Gal(b1-4)Glc
# In short: as §1
# [21] = target: Gal(b1-3)GlcNAc(b1-3)GalNAc
# In short: as §1
# [22] = target: Gal(b1-3)GlcNAc(b1-6)Gal(b1-4)GlcNAc
# In short: as §1
# [23] = target: Gal(b1-3)GlcNAc(b1-6)GalNAc
# In short: as §1
# [24] = target: Gal(b1-3)GlcNAc(b1-6)[Gal(b1-3)]GalNAc
# In short: as §1
# Gal(b1-3)GlcNAc6S = target: Gal(b1-3)GlcNAc6S
# In short: as §1
# [25] = target: Gal(b1-3)[Fuc(a1-4)]GlcNAc
# In short: as §1
# [26] = target: Gal(b1-3)[Fuc(a1-4)]GlcNAc(b1-2)Man
# In short: as §1
# [27] = target: Gal(b1-3)[Fuc(a1-4)]GlcNAc(b1-2)Man(a1-3)[Gal(b1-3)[Fuc(a1-4)]GlcNAc(b1-2)Man(a1-6)]Man(b1-4)GlcNAc(b1-4)[Fuc(a1-6)]GlcNAc
# In short: as §1
# [28] = target: Gal(b1-3)[Fuc(a1-4)]GlcNAc(b1-3)Gal(b1-3)[Fuc(a1-4)]GlcNAc
# In short: as §1
# [29] = target: Gal(b1-3)[Fuc(a1-4)]GlcNAc(b1-3)Gal(b1-4)[Fuc(a1-3)]GlcNAc
# In short: as §1
# [30] = target: Gal(b1-3)[Fuc(a1-4)]GlcNAc(b1-6)GalNAc
# In short: as §1
# [31] = target: Gal(b1-3)[GlcNAc(b1-6)]GalNAc
# In short: as §1
# [32] = target: Gal(b1-3)[Neu5Ac(a2-6)]GalNAc
# In short: as §1
# [33] = target: Gal(b1-3)[Neu5Ac(a2-6)]GlcNAc(b1-4)Gal(b1-4)Glc
# In short: as §1
# [34] = target: Gal(b1-3)[Neu5Ac(b2-6)]GalNAc
# In short: as §1
# Gal(b1-4)Gal = target: Gal(b1-4)Gal
# In short: as §1
# [35] = target: Gal(b1-4)GalNAc(a1-3)[Fuc(a1-2)]Gal(b1-4)GlcNAc
# In short: as §1
# [36] = target: Gal(b1-4)GalNAc(b1-3)[Fuc(a1-2)]Gal(b1-4)GlcNAc
# In short: as §1
binder,measurement,setting,value
"YghJ (Escherichia coli), E3PJ90 (protein) MNKKFKYKKSLLAAILSATLLAGCDGGGSGSSSDTPPVDSGTGSLPEVKPDPTPNPEPTPEPTPDPEPTPEPIPDPEPTPEPEPEPVPTKTGYLTLGGSQRVTGATCNGESSDGFTFKPGEDVTCVAGNTTIATFNTQSEAARSLRAVEKVSFSLEDAQELAGSDDKKSNAVSLVTSSNSCPANTEQVCLTFSSVIESKRFDSLYKQIDLAPEEFKKLVNEEVENNAATDKAPSTHTSPVVPVTTPGTKPDLNASFVSANAEQFYQYQPTEIILSEGRLVDSQGYGVAGVNYYTNSGRGVTGENGEFSFSWGEAISFGIDTFELGSVRGNKSTIALTELGDEVRGANIDQLIHRYSTTGQNNTRVVPDDVRKVFAEYPNVINEIINLSLSNGATLGEGEQVVNLPNEFIEQFNTGQAKEIDTAICAKTDGCNEARWFSLTTRNVNDGQIQGVINKLWGVDTNYKSVSKFHVFHDSTNFYGSTGNARGQAVVNISNAAFPILMARNDKNYWLAFGEKRAWDKNELAYITEAPSIVRPENVTRETASFNLPFISLGQVGDGKLMVIGNPHYNSILRCPNGYSWNGGVNKDGQCTLNSDPDDMKNFMENVLRYLSNDRWLPDAKSSMTVGTNLETVYFKKHGQVLGNSAPFAFHKDFTGITVKPMTSYGNLNPDEVPLLILNGFEYVTQWGSDPYSIPLRADTSKPKLTQQDVTDLIAYMNKGGSVLIMENVMSNLKEESASGFVRLLDAAGLSMALNKSVVNNDPQGYPDRVRQRRSTPIWVYERYPAVDGKPPYTIDDTTKEVIWKYQQENKPDDKPKLEVASWQEEVEGKQVTQFAFIDEADHKTPESLAAAKQRILDAFPGLEVCKDSDYHYEVNCLEYRPGTDVPVTGGMYVPQYTQLDLSADTAKAMLQAADLGTNIQRLYQHELYFRTNGRQGERLNSVDLERLYQNMSVWLWNETKYRYEEGKEDELGFKTFTEFLNCYTNNAYVGTQCSAELKKSLIDNKMIYGEESSKAGMMNPSYPLNYMEKPLTRLMLGRSWWDLNIKVDVEKYPGVVNTNGETVTQNINLYSAPTKWFAGNMQSTGLWAPAQQEVSIESKSTVPVTVTVALADDLTGREKHEVSLNRPPRVTKTYDLKANDKVTFKVPYGGLIYIKGDSKEVQSADFTFTGVVKAPFYKDGKWQHDLNSPAPLGELESASFVYTTPKKNLNASNYTGGLEQFANDLDTFASSMNDFYGRDSEDGKHRMFTYKNLPGHKHRFANDVQISIGDAHSGYPVMNSSFSPNSTTLPTTPLNDWLIWHEVGHNAAETPLTVPGATEVANNVLALYMQDRYLGKMNRVADDITVAPEYLEESNGQAWARGGAGDRLLMYAQLKEWAEKNFDIKKWYPDGTPLPEFYSEREGMKGWNLFQLMHRKARGDEVSNDKFGGKNYCAESNGNAADTLMLCASWVAQTDLSEFFKKWNPGANAYQLPGASEMSFEGGVSQSAYNTLASLDLPKPEQGPETINQVTEHKMSAE",glycan array binding signal (z-score),Gal(b1-2)Gal,0.575
same,glycan array binding signal (z-score),Gal(b1-3)Gal,0.106
same,glycan array binding signal (z-score),Gal(b1-3)Gal(b1-4)GlcNAc,-0.841
same,glycan array binding signal (z-score),Gal(b1-3)GalNAc,-0.482
same,glycan array binding signal (z-score),[1],2.15
same,glycan array binding signal (z-score),[2],0.412
same,glycan array binding signal (z-score),Gal(b1-3)GalNAc(b1-3)Gal,-0.908
same,glycan array binding signal (z-score),[3],0.195
same,glycan array binding signal (z-score),[4],-0.121
same,glycan array binding signal (z-score),[5],-0.276
same,glycan array binding signal (z-score),Gal(b1-3)GlcNAc,0.17
same,glycan array binding signal (z-score),[6],-0.404
same,glycan array binding signal (z-score),[7],0.492
same,glycan array binding signal (z-score),Gal(b1-3)GlcNAc(b1-2)Man,-0.517
same,glycan array binding signal (z-score),[8],-0.765
same,glycan array binding signal (z-score),[9],-0.233
same,glycan array binding signal (z-score),[10],1.32
same,glycan array binding signal (z-score),[11],0.998
same,glycan array binding signal (z-score),[12],-0.516
same,glycan array binding signal (z-score),[13],-0.585
same,glycan array binding signal (z-score),[14],-0.743
same,glycan array binding signal (z-score),[15],0.683
same,glycan array binding signal (z-score),[16],-0.296
same,glycan array binding signal (z-score),[17],0.402
same,glycan array binding signal (z-score),[18],1.23
same,glycan array binding signal (z-score),[19],2.4
same,glycan array binding signal (z-score),[20],-1.76
same,glycan array binding signal (z-score),[21],-0.313
same,glycan array binding signal (z-score),[22],-1.15
same,glycan array binding signal (z-score),[23],-1.75
same,glycan array binding signal (z-score),[24],0.75
same,glycan array binding signal (z-score),Gal(b1-3)GlcNAc6S,0.928
same,glycan array binding signal (z-score),[25],0.039
same,glycan array binding signal (z-score),[26],0.715
same,glycan array binding signal (z-score),[27],0.471
same,glycan array binding signal (z-score),[28],-1.57
same,glycan array binding signal (z-score),[29],0.826
same,glycan array binding signal (z-score),[30],-0.237
same,glycan array binding signal (z-score),[31],-0.212
same,glycan array binding signal (z-score),[32],-0.102
same,glycan array binding signal (z-score),[33],-0.273
same,glycan array binding signal (z-score),[34],0.35
same,glycan array binding signal (z-score),Gal(b1-4)Gal,0.832
same,glycan array binding signal (z-score),[35],-1.43
same,glycan array binding signal (z-score),[36],-0.638
